Taken from: PubChem BioAssay AID504764 (Drosophila RNAi Screening Center, 2011)

Assay: 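Genome-wide screen for regulators of Notch-driven gene expression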 (primary screen)
Cells: Drosophila Kc167 cells
Knock-down reagent: long dsRNA against Drosophila genes
Timing: about 5 days (4 days dsRNA, then 24 h after transfection)
Challenge: transfection of constitutively active membrane-tethered Notch lacking the extracellular domain, read 24 h later
Measured: 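Firefly luciferase from an E(spl)m3 reporter with active Notch, plus control-promoter and uninduced reporter wells for normalisation; unnormalised counts, duplicate wells a and b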
Direction: induced reporter light, run 1, well a and induced reporter light, run 1, well b: higher = more light from the Notch target reporter with active Notch; control promoter light, run 1, well a and control promoter light, run 1, well b: higher = more light from the viral control promoter (cell number, transfection, viability); uninduced reporter light, run 1, well a: higher = more light from the Notch target reporter without active Notch
Hit rule: 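Hit if the duplicate-averaged log2 ratio of induced to control-promoter light gives a plate-wise z beyond ±2, or induced to uninduced beyond ±1.8; weak-control or discordant-duplicate wells dropped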
Meaning of the calls: active = modifier hit (raised or lowered Notch signal); inactive = not a hit
The deposit covers about 22,000 reagents; shown is a random part of those with a known target gene and a result. Of all reagents, 403 (1.9%) were called active. 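Unnormalised raw counts per well; ratio z-scores behind the hit calls and whether each hit raises or lowers signal are not deposited.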 The numbers tell different reagents against one gene apart. Not stated in the record: the amount of reagent.

Nnk (Nicknack)
- induced reporter light, run 1, well a: 1.92e5
- induced reporter light, run 1, well b: 1.53e5
- control promoter light, run 1, well a: 1.68e5
- control promoter light, run 1, well b: 1.53e5
- uninduced reporter light, run 1, well a: 10600
- Outcome: inactive

gus (gustavus) #1
- induced reporter light, run 1, well a: 1.64e5
- induced reporter light, run 1, well b: 1.60e5
- control promoter light, run 1, well a: 1.46e5
- control promoter light, run 1, well b: 1.71e5
- uninduced reporter light, run 1, well a: 11685
- Outcome: inactive

gus (gustavus) #2
- induced reporter light, run 1, well a: 2.07e5
- induced reporter light, run 1, well b: 1.85e5
- control promoter light, run 1, well a: 2.14e5
- control promoter light, run 1, well b: 2.08e5
- uninduced reporter light, run 1, well a: 12060
- Outcome: inactive

scrt (scratch)
- induced reporter light, run 1, well a: 10365
- induced reporter light, run 1, well b: 8680
- control promoter light, run 1, well a: 15388
- control promoter light, run 1, well b: 20475
- uninduced reporter light, run 1, well a: 2805
- Outcome: inactive

CG8929
- induced reporter light, run 1, well a: 1.09e5
- induced reporter light, run 1, well b: 1.30e5
- control promoter light, run 1, well a: 1.91e5
- control promoter light, run 1, well b: 1.83e5
- uninduced reporter light, run 1, well a: 9900
- Outcome: inactive

Kaz (Katazuke)
- induced reporter light, run 1, well a: 1.56e5
- induced reporter light, run 1, well b: 1.62e5
- control promoter light, run 1, well a: 1.93e5
- control promoter light, run 1, well b: 1.69e5
- uninduced reporter light, run 1, well a: 11725
- Outcome: inactive

CG11791
- induced reporter light, run 1, well a: 1.73e5
- induced reporter light, run 1, well b: 1.79e5
- control promoter light, run 1, well a: 2.19e5
- control promoter light, run 1, well b: 2.14e5
- uninduced reporter light, run 1, well a: 12445
- Outcome: inactive

CG18814
- induced reporter light, run 1, well a: 1.60e5
- induced reporter light, run 1, well b: 1.46e5
- control promoter light, run 1, well a: 1.90e5
- control promoter light, run 1, well b: 1.66e5
- uninduced reporter light, run 1, well a: 7290
- Outcome: inactive

Gbs-70E (Glycogen binding subunit 70E)
- induced reporter light, run 1, well a: 1.54e5
- induced reporter light, run 1, well b: 1.91e5
- control promoter light, run 1, well a: 2.34e5
- control promoter light, run 1, well b: 1.40e5
- uninduced reporter light, run 1, well a: 7665
- Outcome: inactive

CG10405
- induced reporter light, run 1, well a: 2.13e5
- induced reporter light, run 1, well b: 2.13e5
- control promoter light, run 1, well a: 2.25e5
- control promoter light, run 1, well b: 2.16e5
- uninduced reporter light, run 1, well a: 19520
- Outcome: inactive

CG33777
- induced reporter light, run 1, well a: 2.00e5
- induced reporter light, run 1, well b: 1.77e5
- control promoter light, run 1, well a: 2.25e5
- control promoter light, run 1, well b: 2.61e5
- uninduced reporter light, run 1, well a: 14638
- Outcome: inactive

Argp (Arginine phosphatase)
- induced reporter light, run 1, well a: 2.42e5
- induced reporter light, run 1, well b: 2.60e5
- control promoter light, run 1, well a: 2.54e5
- control promoter light, run 1, well b: 2.38e5
- uninduced reporter light, run 1, well a: 19915
- Outcome: inactive

Limited to “induced reporter light, run 1, well b”, for 2 of the entries above:
CG10405	2.13e5
CG33777	1.77e5
